Record: PubChem BioAssay AID504774 (Drosophila RNAi Screening Center, 2011)
The deposit covers about 23,000 reagents; below is a random part of those that have a named target and a result. 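Values are quantile-normalised luminescence on an arbitrary scale; higher means more cells surviving MMS.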 A plus sign joins genes that one reagent is predicted to hit. Not all columns of the deposit are shown.

Aim: 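Fly genes whose loss alters survival after alkylation damage to DNA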 (primary screen)
Cells: Drosophila Kc167 cells
Reagent: long dsRNA against Drosophila genes, about 0.25 µg dsRNA per well
Time to read-out: about 6 days: 3 days knock-down, then 3 days with or without MMS
Treatment: methyl methanesulphonate 0.004% (w/v) for 3 days after knock-down
Detection: 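Viability in wells given MMS, read as ATP luminescence, normalised by quantiles plate by plate and averaged across replicates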
Reading the numbers: mean viability with MMS: higher = more surviving cells after MMS

CG5910 [DRSC11786]
- mean viability with MMS: 3.59e6

Gr43a [DRSC06658]
- mean viability with MMS: 3.55e6

CG17221 [DRSC00487]
- mean viability with MMS: 3.43e6

CG1582 [DRSC19732]
- mean viability with MMS: 3.73e6

CG13313 [DRSC09984]
- mean viability with MMS: 3.52e6

CG9377 [DRSC03217]
- mean viability with MMS: 3.43e6

hyd [DRSC16971]
- mean viability with MMS: 3.31e6

mip130 [DRSC18575]
- mean viability with MMS: 3.50e6

Prosalpha5 [DRSC07514]
- mean viability with MMS: 3.14e6

Dpy-30L2 [DRSC08205]
- mean viability with MMS: 3.55e6

CG14126 (retired record) [DRSC10130]
- mean viability with MMS: 3.74e6

Cyp6a9 [DRSC07385]
- mean viability with MMS: 3.97e6

ND-15 [DRSC00311]
- mean viability with MMS: 3.39e6

Obp93a [DRSC15220]
- mean viability with MMS: 3.50e6

CG3168 [DRSC18287]
- mean viability with MMS: 3.03e6

Atg4b [DRSC15988]
- mean viability with MMS: 3.49e6

Cul1 [DRSC07645]
- mean viability with MMS: 3.42e6

mRpL39 [DRSC10255]
- mean viability with MMS: 3.62e6

Ilp5 [DRSC08998]
- mean viability with MMS: 3.84e6

Obp83a [DRSC12362]
- mean viability with MMS: 3.48e6

pnt [DRSC17028]
- mean viability with MMS: 3.07e6

pnt [DRSC23204]
- mean viability with MMS: 3.11e6

CG14323 [DRSC14802]
- mean viability with MMS: 3.28e6

CG31269 [DRSC15744]
- mean viability with MMS: 3.67e6

Scm [DRSC16853]
- mean viability with MMS: 3.50e6

fng [DRSC11455]
- mean viability with MMS: 3.61e6

fng [DRSC11887]
- mean viability with MMS: 3.49e6

fng [DRSC21935]
- mean viability with MMS: 3.55e6

CG40439 [DRSC22707]
- mean viability with MMS: 3.59e6

CG34445 [DRSC22404]
- mean viability with MMS: 3.68e6

mira [DRSC16998]
- mean viability with MMS: 3.71e6

CG10803 [DRSC17763]
- mean viability with MMS: 3.50e6

ng2 [DRSC18803]
- mean viability with MMS: 3.53e6

CG8778 [DRSC07264]
- mean viability with MMS: 3.47e6

CG5850 [DRSC02905]
- mean viability with MMS: 3.72e6

CG32109 [DRSC09816]
- mean viability with MMS: 3.67e6

CG42331 [DRSC14633]
- mean viability with MMS: 1.66e6

CG42331 [DRSC16126]
- mean viability with MMS: 3.47e6

msd5 [DRSC08560]
- mean viability with MMS: 3.57e6

Mps1 [DRSC16273]
- mean viability with MMS: 3.62e6

rump [DRSC16480]
- mean viability with MMS: 3.43e6

JMJD6 [DRSC15787]
- mean viability with MMS: 3.44e6

CG42557 + CG42558 [DRSC13963]
- mean viability with MMS: 3.53e6

CG42557 + CG42558 [DRSC16329]
- mean viability with MMS: 3.46e6

Cyp6t2Psi [DRSC01840]
- mean viability with MMS: 3.54e6

Sorted by “mean viability with MMS” (low to high): some entries from above
CG14323 [DRSC14802]
- mean viability with MMS: 3.28e6

fng [DRSC11887]
- mean viability with MMS: 3.49e6

Scm [DRSC16853]
- mean viability with MMS: 3.50e6

fng [DRSC21935]
- mean viability with MMS: 3.55e6

fng [DRSC11455]
- mean viability with MMS: 3.61e6

CG31269 [DRSC15744]
- mean viability with MMS: 3.67e6
